The list shows a part of the results.

Amino acid sequences for entries named in this document (tags omitted).
UniProt Q0JBA9, entry or part of it: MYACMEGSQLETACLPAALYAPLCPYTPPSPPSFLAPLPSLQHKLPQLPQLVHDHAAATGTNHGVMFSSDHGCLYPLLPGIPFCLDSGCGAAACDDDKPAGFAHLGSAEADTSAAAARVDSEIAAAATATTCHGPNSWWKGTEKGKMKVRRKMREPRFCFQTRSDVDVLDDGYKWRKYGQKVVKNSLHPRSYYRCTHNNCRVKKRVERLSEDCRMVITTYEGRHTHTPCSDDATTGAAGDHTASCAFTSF

Here are results for 42 sequences from publication PMC7819943, “Rice protein-binding microarrays: a tool to detect cis-acting elements near promoter regions in rice”.

This assay concerns the target OsWRKY34 (Oryza sativa, UniProt Q0JBA9 1-250). The assay can be described thus: protein-binding microarray (RPBM); PBS, 2% BSA, 51.3 ng/ul salmon testes DNA, 50 uM zinc acetate, 200 nM TF, 25 C, 1 h; high values mean tight binding. Conditions: protein: recombinant; tags: N-terminal polyhistidine and DsRed monomer fusion (pET32a); label: CyDye5-dUTP incorporated in the synthesized complementary strand; 3' TTTTT single-stranded linker to array surface; dsDNA, one strand shown. In short, it runs like this: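 Transcription factors, each fused N-terminally to a polyhistidine tag and DsRed, were expressed in E. coli BL21-CodonPlus and purified on Ni–NTA. A custom Agilent array was made double-stranded by primer extension with Cy5-dUTP and blocked with 2% BSA. It was incubated with 200 nM protein in PBS, 2% BSA, salmon testes DNA and 50 µM zinc acetate at 25 °C for 1 h, then washed. The binding signal is per-feature fluorescence intensity (arbitrary units) read on an Axon 4000B scanner.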
Consider “CTTCTTGATCCACCGATTGTTCTTCGATTTCTTGCTTCTTCGGAGTCACCTAGTGCAG”, for which the binding signal is 11300 fluorescence intensity (a.u.).

Take “AATTAGGGACCAGTCCGCCGTATCAACGTTTACCGTTTCTCGGAGTCACCTAGTGCAG”: the binding signal was 8520 fluorescence intensity (a.u.).

For the sequence “AAATTTTTAATAACTACAAGTACTTTCTTTAACTTTAACACGGAGTCACCTAGTGCAG”, the binding signal is 8210 fluorescence intensity (a.u.).

Consider “GGGCGAGGAGCAGCGGCGGGCGGGCGGATGAGGGGCGGCGCGGAGTCACCTAGTGCAG”, for which the binding signal was 11400 fluorescence intensity (a.u.).

For the sequence “ACGCATCGCGTTGACGCCGCTCCGCCCTCTTTCCTTTGCACGGAGTCACCTAGTGCAG”, the binding signal is 10300 fluorescence intensity (a.u.).

Consider “GCTCTCGCGCCGCGGTCGCTTTCCTTCCCCTAAATTAAATCGGAGTCACCTAGTGCAG”, for which the binding signal is 9340 fluorescence intensity (a.u.).

Take “GGATGGGGAGTTGATTGCGGGAGGGATGAGTGTGGACGCACGGAGTCACCTAGTGCAG”: the binding signal is 12200 fluorescence intensity (a.u.).

As to “ATGTATCCTGTATGGTTTGTTTGAGCCTTAGTTTTTCAATCGGAGTCACCTAGTGCAG”, the binding signal is 10600 fluorescence intensity (a.u.).

With “TGCATCTTCTTCTCTACTCCACGGCCGCGACATCGAACTTCGGAGTCACCTAGTGCAG”, the binding signal is 13800 fluorescence intensity (a.u.).

Regarding “ACACTATTTTTTTATTTTTCATGTGTAATTTTGGTTCATACGGAGTCACCTAGTGCAG”, the binding signal was 9940 fluorescence intensity (a.u.).

For “GACTACTGAATGTGCTATTCTTGGCCTTTTCTATAGATAACGGAGTCACCTAGTGCAG”, the binding signal was 9960 fluorescence intensity (a.u.).

On to “AGAAAAGTTGTGCCAAGCGGACCCAAAAACTGTCCCTTATCGGAGTCACCTAGTGCAG”, for which the binding signal was 8830 fluorescence intensity (a.u.).

“CAGACTTGCGGTGGATGGGGCGGTGGGGAAAGCATAAATGCGGAGTCACCTAGTGCAG”: the binding signal is 14300 fluorescence intensity (a.u.).

Turning to “CCGGCCGCTGCCATCTCCGCACCCCGCTTCCAGTTCTGACCGGAGTCACCTAGTGCAG”, the binding signal is 8280 fluorescence intensity (a.u.).

Regarding “GAAGATTGAATCCCTCTGGTGTATATTACCTTCTGTTCTTCGGAGTCACCTAGTGCAG”, the binding signal is 8860 fluorescence intensity (a.u.).

Consider “CCTTCCTCACTTTTGGTGTCTTCTGCTTTCGTCACAAGGACGGAGTCACCTAGTGCAG”, for which the binding signal was 8500 fluorescence intensity (a.u.).

Consider “ATGCTTCTTTTTTTTTTCCCTTATCTTTTACGGGGAGGAGCGGAGTCACCTAGTGCAG”, for which the binding signal is 10300 fluorescence intensity (a.u.).

For “CCTTCCTTTTCCGCTCTCTTTCACCGTCCCCGCCGCGTCCCGGAGTCACCTAGTGCAG”, the binding signal is 8790 fluorescence intensity (a.u.).

In the case of “CTCACCGGTCATTCGCAGCCCACCAACCTCCAAAGCCGGTCGGAGTCACCTAGTGCAG”, the binding signal is 9220 fluorescence intensity (a.u.).

In the case of “TAGGTCGCTCGCTGCTCACTCTACACAGCAGCATGTTTTCCGGAGTCACCTAGTGCAG”, the binding signal was 9800 fluorescence intensity (a.u.).

As to “GTTTTCCCAGCGCTGCCGTCTCTTCCGCCGCACTTTTAGACGGAGTCACCTAGTGCAG”, the binding signal is 9520 fluorescence intensity (a.u.).

In the case of “ACACCAGCCGACCCCTAACTCGATCTCGTCTCCGTATATACGGAGTCACCTAGTGCAG”, the binding signal is 10600 fluorescence intensity (a.u.).

As for “CCCACATGAATACCCTGCACTACCACCAACACACCACTCGCGGAGTCACCTAGTGCAG”, the binding signal was 9750 fluorescence intensity (a.u.).

For the sequence “TGGTTATTATCACTTCCCTGTTAGTACTTGTGGCTTATTACGGAGTCACCTAGTGCAG”, the binding signal was 13500 fluorescence intensity (a.u.).

Turning to “CTAACTTTTATAACATACTAGCGCTCACAGTCTCGTCACACGGAGTCACCTAGTGCAG”, the binding signal was 12300 fluorescence intensity (a.u.).

“TCCGCCTCCGCCGCCGCCTCGCCGTCCGCCTCCGCGGCCGCGGAGTCACCTAGTGCAG”: the binding signal was 10300 fluorescence intensity (a.u.).

For “TTGGCTACTGTATTGGGGATTAATTTGGGTAATTACTACTCGGAGTCACCTAGTGCAG”, the binding signal was 11100 fluorescence intensity (a.u.).

In the case of “CCCTCGTCTTCTTCTCCACGCGACGCCGGTCAAAGTTTGACGGAGTCACCTAGTGCAG”, the binding signal is 10700 fluorescence intensity (a.u.).

“TGGTATCGAAAGTTCATGTTTTTGGTTTTATAGTACCGAACGGAGTCACCTAGTGCAG”: the binding signal was 9430 fluorescence intensity (a.u.).

In the case of “GTGATTAGCCATTCCTCTTCTCATCTCTAGCCACTTCGCTCGGAGTCACCTAGTGCAG”, the binding signal was 8100 fluorescence intensity (a.u.).

Regarding “CCACCATTTTTTATTAATTTCTGTATGAAACTGACAAGTGCGGAGTCACCTAGTGCAG”, the binding signal was 8090 fluorescence intensity (a.u.).

Consider “ACGATTGTTATGTTTGATTCTCTCGTACGATTGCTCACGGCGGAGTCACCTAGTGCAG”, for which the binding signal was 8460 fluorescence intensity (a.u.).

“GGACCTATTTGGAGAGTTTCTAGCTGCTGTAGTTTTCCACCGGAGTCACCTAGTGCAG”: the binding signal is 8220 fluorescence intensity (a.u.).

For “GTAAATCCGCTCCAATTGACTCTACCAACCCACCCGTGCTCGGAGTCACCTAGTGCAG”, the binding signal was 9420 fluorescence intensity (a.u.).

With “GAGGCTGCATCTACCGCATCAGTTTGGTCATCGATCTTCACGGAGTCACCTAGTGCAG”, the binding signal was 10300 fluorescence intensity (a.u.).

In the case of “CGCTTTCCAATTACCACACTTTCTTTCTTCTCTGAATGTACGGAGTCACCTAGTGCAG”, the binding signal is 9650 fluorescence intensity (a.u.).

Take “ACTGCAACTACTACTACTTTCTTTTATTTATAGCTACTTACGGAGTCACCTAGTGCAG”: the binding signal is 13400 fluorescence intensity (a.u.).

Consider “GTGCACACAACGCTTATAGACAACACATATCACATTCTTTCGGAGTCACCTAGTGCAG”, for which the binding signal was 8460 fluorescence intensity (a.u.).

Consider “TTAGCCTCCGTTAACACTGTACAATTTTGTCCAAATGACCCGGAGTCACCTAGTGCAG”, for which the binding signal was 8530 fluorescence intensity (a.u.).

With “CTACACATACAAGGCACACACATCCCATGCTACTAGTGCTCGGAGTCACCTAGTGCAG”, the binding signal was 8120 fluorescence intensity (a.u.).

Turning to “GGTCAAATATATTTTAAAAAGTCAACGGCGTCAAACATTTCGGAGTCACCTAGTGCAG”, the binding signal is 10600 fluorescence intensity (a.u.).

With “TTGCGTGGCCTCGCCTGCCCTTGTTCACCTCACCTCAGCTCGGAGTCACCTAGTGCAG”, the binding signal was 8710 fluorescence intensity (a.u.).
